Data taken from paper doi:10.1101/2021.02.04.429764.

Chains of the proteins cited; added tags and fusions are not shown.
UniProt Q92769: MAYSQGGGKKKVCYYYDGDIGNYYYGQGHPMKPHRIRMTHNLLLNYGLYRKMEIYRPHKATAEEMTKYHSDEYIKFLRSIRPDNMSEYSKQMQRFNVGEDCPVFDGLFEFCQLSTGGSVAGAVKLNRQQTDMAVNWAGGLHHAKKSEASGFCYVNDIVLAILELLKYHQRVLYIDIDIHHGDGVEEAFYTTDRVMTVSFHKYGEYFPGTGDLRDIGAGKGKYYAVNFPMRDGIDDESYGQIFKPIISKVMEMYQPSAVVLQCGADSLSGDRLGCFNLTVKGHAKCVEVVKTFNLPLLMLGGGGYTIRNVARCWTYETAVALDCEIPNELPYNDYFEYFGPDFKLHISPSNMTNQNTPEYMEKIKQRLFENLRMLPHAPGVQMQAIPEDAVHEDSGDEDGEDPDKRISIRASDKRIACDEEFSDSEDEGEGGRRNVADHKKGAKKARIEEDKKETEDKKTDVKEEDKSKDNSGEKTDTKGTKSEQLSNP
UniProt Q13547: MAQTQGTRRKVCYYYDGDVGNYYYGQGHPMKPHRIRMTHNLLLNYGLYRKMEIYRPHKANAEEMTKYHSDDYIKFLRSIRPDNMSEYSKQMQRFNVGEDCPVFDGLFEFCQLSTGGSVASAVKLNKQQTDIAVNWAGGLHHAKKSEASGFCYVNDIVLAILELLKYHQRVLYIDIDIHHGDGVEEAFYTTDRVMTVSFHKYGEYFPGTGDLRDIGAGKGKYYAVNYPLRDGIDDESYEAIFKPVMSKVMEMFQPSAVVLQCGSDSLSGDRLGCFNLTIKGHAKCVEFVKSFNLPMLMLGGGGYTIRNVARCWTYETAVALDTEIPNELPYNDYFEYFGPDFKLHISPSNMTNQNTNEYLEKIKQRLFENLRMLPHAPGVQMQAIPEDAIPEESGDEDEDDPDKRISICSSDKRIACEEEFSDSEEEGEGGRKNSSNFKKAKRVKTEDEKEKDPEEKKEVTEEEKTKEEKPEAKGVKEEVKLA

Tests used:
Assay in all cases: affinity purification with mass spectrometry
[1] = biological target: T1, Halo-tagged BRMS1 wild-type (BRMS1^WT)
T1 sequence: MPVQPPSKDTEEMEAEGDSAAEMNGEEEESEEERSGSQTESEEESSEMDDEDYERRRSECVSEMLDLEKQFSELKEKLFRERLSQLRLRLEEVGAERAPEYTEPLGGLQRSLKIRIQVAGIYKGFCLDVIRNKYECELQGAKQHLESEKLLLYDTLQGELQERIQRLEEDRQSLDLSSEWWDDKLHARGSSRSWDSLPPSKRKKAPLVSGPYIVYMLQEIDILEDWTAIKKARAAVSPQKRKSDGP

Halo-tagged BRMS1^S237D [2] = biological target: T2, Halo-tagged BRMS1^S237D
T2 sequence: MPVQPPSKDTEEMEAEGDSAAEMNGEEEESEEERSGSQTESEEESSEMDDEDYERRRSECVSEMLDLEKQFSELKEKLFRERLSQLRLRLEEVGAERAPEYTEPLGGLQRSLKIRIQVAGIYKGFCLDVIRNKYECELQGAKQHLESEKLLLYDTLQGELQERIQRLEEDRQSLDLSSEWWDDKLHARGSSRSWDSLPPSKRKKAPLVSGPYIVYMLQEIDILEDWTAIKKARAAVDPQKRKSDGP

Halo-tagged BRMS1^S237A [3] = biological target: T3, Halo-tagged BRMS1^S237A
T3 sequence: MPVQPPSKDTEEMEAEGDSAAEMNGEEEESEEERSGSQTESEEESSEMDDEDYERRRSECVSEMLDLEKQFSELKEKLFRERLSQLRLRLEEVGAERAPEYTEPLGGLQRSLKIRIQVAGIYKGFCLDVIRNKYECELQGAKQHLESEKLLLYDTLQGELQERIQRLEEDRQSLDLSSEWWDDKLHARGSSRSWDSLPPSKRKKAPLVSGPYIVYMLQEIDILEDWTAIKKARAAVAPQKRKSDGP

Halo-tagged BRMS1^S237D [4] = biological target: T2, Halo-tagged BRMS1^S237D; remark: listed apart in the source
[5] = biological target: T1, Halo-tagged BRMS1 wild-type (BRMS1^WT); remark: listed apart in the source
[6] = biological target: T4, Halo-tagged BRMS1 aa 1-229 (BRMS1^1-229)
T4 sequence: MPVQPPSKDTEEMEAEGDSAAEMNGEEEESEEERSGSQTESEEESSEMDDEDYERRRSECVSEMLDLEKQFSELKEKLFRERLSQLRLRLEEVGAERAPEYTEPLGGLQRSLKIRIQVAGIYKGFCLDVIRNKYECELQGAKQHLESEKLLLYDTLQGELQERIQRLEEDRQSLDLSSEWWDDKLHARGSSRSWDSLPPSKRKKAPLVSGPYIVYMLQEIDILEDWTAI

Halo-tagged BRMS1^S237A [7] = biological target: T3, Halo-tagged BRMS1^S237A; remark: listed apart in the source

Molecule: Cyclin Dependent Kinase Inhibitor 2A (CDKN2A) (human (endogenous in HEK293T))
- binding [1]: binds

Molecule: HDAC2 (from UniProt Q92769 1-488)
- binding [1]: binds
- binding (Halo-tagged BRMS1^S237D [2]): binds
- binding (Halo-tagged BRMS1^S237A [3]): binds

Molecule: HDAC1 (from UniProt Q13547 1-482)
- binding [1]: binds
- binding (Halo-tagged BRMS1^S237D [2]): binds

B1: SUDS3 (protein, UniProt Q9H7L9 1-328)
chain: MSAAGLLAPAPAQAGAPPAPEYYPEEDEELESAEDDERSCRGRESDEDTEDASETDLAKHDEEDYVEMKEQMYQDKLASLKRQLQQLQEGTLQEYQKRMKKLDQQYKERIRNAELFLQLETEQVERNYIKEKKAAVKEFEDKKVELKENLIAELEEKKKMIENEKLTMELTGDSMEVKPIMTRKLRRRPNDPVPIPDKRRKPAPAQLNYLLTDEQIMEDLRTLNKLKSPKRPASPSSPEHLPATPAESPAQRFEARIEDGKLYYDKRWYHKSQAIYLESKDNQKLSCVISSVGANEIWVRKTSDSTKMRIYLGQLQRGLFVIRRRSAA
- binding (Halo-tagged BRMS1^S237D [4]): binds

B2: TRMT2A (TRNA Methyltransferase 2 Homolog A) (protein, UniProt Q8IZ69 1-625)
chain: MSENLDNEGPKPMESCGQESSSALSCPTVSVPPAAPAALEEVEKEGAGAATGPGPQPGLYSYIRDDLFTSEIFKLELQNVPRHASFSDVRRFLGRFGLQPHKTKLFGQPPCAFVTFRSAAERDKALRVLHGALWKGRPLSVRLARPKADPMARRRRQEGESEPPVTRVADVVTPLWTVPYAEQLERKQLECEQVLQKLAKEIGSTNRALLPWLLEQRHKHNKACCPLEGVRPSPQQTEYRNKCEFLVGVGVDGEDNTVGCRLGKYKGGTCAVAAPFDTVHIPEATKQVVKAFQEFIRSTPYSAYDPETYTGHWKQLTVRTSRRHQAMAIAYFHPQKLSPEELAELKTSLAQHFTAGPGRASGVTCLYFVEEGQRKTPSQEGLPLEHVAGDRCIHEDLLGLTFRISPHAFFQVNTPAAEVLYTVIQDWAQLDAGSMVLDVCCGTGTIGLALARKVKRVIGVELCPEAVEDARVNAQDNELSNVEFHCGRAEDLVPTLVSRLASQHLVAILDPPRAGLHSKVILAIRRAKNLRRLLYVSCNPRAAMGNFVDLCRAPSNRVKGIPFRPVKAVAVDLFPQTPHCEMLILFERVEHPNGTGVLGPHSPPAQPTPGPPDNTLQETGTFPSS
- binding [5]: binds
- binding [6]: binds

B3: DNA Polymerase Epsilon Subunit 2 (POLE2) (protein, UniProt P56282 1-527)
chain: MAPERLRSRALSAFKLRGLLLRGEAIKYLTEALQSISELELEDKLEKIINAVEKQPLSSNMIERSVVEAAVQECSQSVDETIEHVFNIIGAFDIPRFVYNSERKKFLPLLMTNHPAPNLFGTPRDKAEMFRERYTILHQRTHRHELFTPPVIGSHPDESGSKFQLKTIETLLGSTTKIGDAIVLGMITQLKEGKFFLEDPTGTVQLDLSKAQFHSGLYTEACFVLAEGWFEDQVFHVNAFGFPPTEPSSTTRAYYGNINFFGGPSNTSVKTSAKLKQLEEENKDAMFVFLSDVWLDQVEVLEKLRIMFAGYSPAPPTCFILCGNFSSAPYGKNQVQALKDSLKTLADIICEYPDIHQSSRFVFVPGPEDPGFGSILPRPPLAESITNEFRQRVPFSVFTTNPCRIQYCTQEITVFREDLVNKMCRNCVRFPSSNLAIPNHFVKTILSQGHLTPLPLYVCPVYWAYDYALRVYPVPDLLVIADKYDPFTTTNTECLCINPGSFPRSGFSFKVFYPSNKTVEDSKLQGF
- binding [5]: binds

B4: BBX (protein, UniProt Q8WY36 1-941)
chain: MKGSNRNKDHSAEGEGVGKRPKRKCLQWHPLLAKKLLDFSEEEEEEDEEEDIDKVQLLGADGLEQDVGETEDDESPEQRARRPMNAFLLFCKRHRSLVRQEHPRLDNRGATKILADWWAVLDPKEKQKYTDMAKEYKDAFMKANPGYKWCPTTNKPVKSPTPTVNPRKKLWAFPSDSSRDLPSPKKAKTEEMPQLNFGMADPTQMGGLSMLLLAGEHALGTPEVSSGTCRPDVSESPELRQKSPLFQFAEISSSTSHSDASTKQCQTSALFQFAEISSNTSQLGGAEPVKRCGKSALFQLAEMCLASEGMKMEESKLIKAKESDGGRIKELEKGKEEKEIKMEKTDETRLQKEAEFEKSAKENLRDSKELRNFEALQIDDIMAIKMEDPKEIRKEELEEDHKCSHFPDFSYSASSKIIISDVPSRKDHMCHPHGIMIIEDPAALNKPEKLKKKKKKSKMDRHGNDKSTPKKTCKKRQSSESDIESVIYTIEAVAKGDWGIEKLGDTPRKKVRTSSSGKGSILDAKPPKKKVKSREKKMSKEKSSDTTKESRPPDFISISASKNISGETPEGIKAEPLTPMEDALPPSLSGQAKPEDSDCHRKIETCGSRKSERSCKGALYKTLVSEGMLTSLRANVDRGKRSSGKGNSSDHEGCWNEESWTFSQSGTSGSKKFKKTKPKEDCLLGSAKLDEEFEKKFNSLPQYSPVTFDRKCVPVPRKKKKTGNVSSEPTKTSKGPFQSQKKNLFHKIVSKYKHKKEKPNVPEKGSGDKWSNKQLFLDAIHPTEAIFSEDRNTMEPVHKVKNIPSIFNTPEPTTTQEPLVGSQKRKARKTKITHLVRTADGRVSPAGGTLDDKPKEQLQRSLPKATETDCNDKCSHNTEVGETRSSTPEMPAVSAFFSLAALAEVAAMENVHRGQRSTPLTHDGQPKEMPQAPVLISCADQ
- binding (Halo-tagged BRMS1^S237D [4]): binds
- binding (Halo-tagged BRMS1^S237A [7]): binds

Like-named read-outs stand apart in the source and are kept apart here. No constants are given. Whether binding was seen depends on the method and setting. In cells and extracts the contact can be indirect. Here binding means that the protein was enriched with, or labelled near, the bait; the list need not be complete. Where a sequence is shown, tags or fusion partners need not be part of it.
